Assay results taken from PubChem BioAssay AID1347075 (National Center for Advancing Translational Sciences (NCATS), 2019).
The whole screen tested about 400,000 compounds, of which about 5,500 (1.4%) were called active. The inconclusive results got no clear call from the source; some entries with a clear call stand among them for comparison. The call rests on the fitted dose curve; in most records, active means well fitted cell-killing curve with a large enough effect; inconclusive means small, poorly fitted or top-dose-only effect, or effect the other way; inactive means flat fitted curve, though single readings scatter. Potencies beside an inconclusive call are fits to weak or partial responses and may not hold up.

assay: qHTS assay for MDR1-selective chemotherapeutics: Primary screen using the parental adenocarcinoma cell KB-3-1; settings: KB-3-1 viability, CellTiter-Glo ATP luminescence, 72 h; activity change, negative = cytotoxic: at 46.1 µM (top of the series); further: nearly all actives have a fitted effect of over 60% in size
Method in brief: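 Here the drug-naive KB-3-1 line serves as comparator for MDR sub-line selectivity; cells received compound titrations, 72 h at 37 °C, then CellTiter-Glo readout.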
On the % scale 0 is the no-effect control and ±100 the full control effect; potency means the concentration at half of the fitted maximal effect.

Structure (SMILES) | activity change, negative = cytotoxic | Potency
Cc1ccc(NC(=O)CN(C)C(=O)c2cccc(S(=O)(=O)N3CCc4ccccc43)c2)cc1 | inactive: -1.61% | –
CCn1c(=O)cc(SCC(=O)NCc2cccc(Cl)c2)c2ccccc21 | – | inconclusive: 20.6 µM [cytotoxic, single point]
COc1ccc(Cn2c(C(=O)O)c(CNC3CCCC3)c3ccc(OC)cc32)cc1 | – | inconclusive: 20.6 µM [cytotoxic, partial curve]
C=CCn1c(SCc2cccc(F)c2)nc2cc(C(=O)N3CCC(C(N)=O)CC3)ccc2c1=O | – | inconclusive: 16.4 µM [cytotoxic, single point]
CCCc1nn(-c2cc(Cl)ccc2OC)c2c1C(=O)CC(C)(C)C2 | – | inconclusive: 29.1 µM [cytotoxic, single point]
Cc1ccc2nc3nc(NCC4CCCO4)c(C(=O)NC4CCCC4)cc3c(=O)n2c1 (stereo unspecified) | inactive: -9.57% | –
CC(C)OC(=O)NC(C)(C)COC(=O)Nc1cccc(Cl)c1 | – | inconclusive: 29.1 µM [cytotoxic, single point]
O=C(CN1CCN(c2cccc(C(F)(F)F)c2)CC1)N(C1CC1)C1CCS(=O)(=O)C1 (stereo unspecified) | inactive: 7.91% | –
O=C(COc1ccc2ccc(=O)oc2c1)Nc1ccc(CN2CCOCC2)cc1 | inactive: 9.26% | –
Cc1ccc(CN2CC(C(=O)Nc3cc(C)ccn3)CC2=O)cc1 (stereo unspecified) | inactive: 4.49% | –
CCOC(=O)c1ccc(-n2cccc2/C=C2\NC(=O)NC2=O)cc1 | – | active: 5.8 µM
CCOc1ccc(/C=C2\C(=O)c3ccccc3OC2c2ccccc2)cc1 (stereo unspecified) | – | inconclusive: 23.1 µM [cytotoxic, single point]
CCOc1ccc(-c2nn(-c3ccccc3)cc2C2NC(=O)NC(C)=C2C(=O)OC(C)C)cc1 (stereo unspecified) | – | inconclusive: 29.1 µM [cytotoxic, single point]
CC(C)[C@H](N)c1nnc(SCC(=O)c2ccc(Cl)cc2)o1 | inactive: 10.5% | –
Cc1ccc(Cl)cc1N1CCN(CC(=O)Nc2ccc(CN3CCCCC3)cc2)CC1 | – | inconclusive: 29.1 µM [cytotoxic, single point]
CCOC(=O)[C@H]1[C@H]2COc3ccc(Br)cc3[C@@H]2N2C(=O)N(c3ccccc3)C(=O)[C@@]12C | inactive: -8.19% | –
CCn1c(SCc2nc3ccccc3c(=O)[nH]2)nnc1C(C)NC(=O)c1ccccc1F (stereo unspecified) | inactive: -13.4% | –
CCOc1ccccc1N(CC(=O)N1CCc2ccccc2C1)S(C)(=O)=O | inactive: 6.76% | –
O=C1NC(=O)c2cc([N+](=O)[O-])cc3cccc1c23 | – | inconclusive: 16.4 µM [cytotoxic, partial curve, poor fit]
CC(C)N(Cc1nc(-c2ccc(Cl)cc2)no1)C(=O)c1ccc(C(C)(C)C)cc1 | inactive: 13.2% | –
COC(=O)c1cc(NC(=O)c2nccnc2C(=O)O)cc(C(=O)OC)c1 | – | inconclusive: 29.1 µM [rising, single point]
Cc1ccccc1NC(=O)Cc1c(O)c2ccccc2[nH]c1=O | – | inconclusive: 14.6 µM [rising, partial curve, poor fit]
COc1ccc(COc2cc(-c3cccc(OC)c3)nc3ccc(NC(=O)c4ccc(N(C)C)cc4)cc23)cc1 | – | active: 4.61 µM

Structure (SMILES) | activity change, negative = cytotoxic | Potency
CNC(=S)NC12CC3CC(CC(C3)C1)C2 | inactive: 8.46% | –
COc1cc(NC(C(=O)Nc2cccc(C(C)=O)c2)c2ccccc2)cc(OC)c1OC (stereo unspecified) | – | inconclusive: 6.51 µM [rising, full curve]
O=C(Cc1ccc(F)cc1)Nc1nc(-c2ccc(F)c(F)c2)cs1 | inconclusive: -31.2% [cytotoxic] | –
CC(=O)c1ccc(N2C(=O)[C@@H]3C(CCC(N)=O)NC4(C(=O)Nc5c4ccc(Cl)c5C)[C@@H]3C2=O)cc1 (stereo partly specified) | – | inconclusive: 18.4 µM [rising, partial curve, poor fit]
Cc1cccc(NC(=O)Nc2cnccn2)c1C | – | inconclusive: 32.6 µM [cytotoxic, single point]
COc1ccc(N2CC(NC(=O)/C=C\c3ccc4c(c3)OCO4)CC2=O)cc1OC (stereo unspecified) | inactive: 1.8% | –
CC(=O)OC1(C(C)=O)CCC2C3CC(C(F)(F)F)C4=CC(=O)CCC4(C)C3CCC21C (stereo unspecified) | inactive: -5.06% | –
O=C(N/N=C/c1ccc(Cl)cc1Cl)c1ccc2nc[nH]c2c1 | inactive: -14.3% | –
N#CC(=C1NC(=O)c2ccccc21)c1nc2ccccc2n1CCO | – | inconclusive: 29.1 µM [cytotoxic, single point]
C=CC(=O)Nc1ccc(CN2C(=O)N(c3c(Cl)c(OC)cc(OC)c3Cl)Cc3cnc(NCCCCN(CC)CC)nc32)cc1 | – | active: 11.6 µM
CC(NC(=O)Cc1ccsc1)c1ccc(F)cc1 (stereo unspecified) | inactive: 6.61% | –
[O-][n+]1c(/C=C/c2ccccc2)ccc2ccccc21 | – | inconclusive: 29.1 µM [cytotoxic, single point]
CC(=O)c1cccc(NS(=O)(=O)c2ccc(N/C=C\C(=O)c3ccc(F)cc3)cc2)c1 | – | inconclusive: 29.1 µM [cytotoxic, single point]
Cc1cc(C(=O)OCC(=O)NC2CCCCC2C)c2ccccc2n1 (stereo unspecified) | inactive: 13.1% | –
CSCCOC(=O)c1[nH]c2c(c1C)C(=O)CC(c1ccco1)C2 (stereo unspecified) | – | active: 1.16 µM
N=c1c2c(ncn1CCCO)Oc1c(ccc3ccccc13)C2c1ccccc1 (stereo unspecified) | – | inconclusive: 29.1 µM [cytotoxic, single point]
OCc1ccccc1SSc1ccccc1CO | – | inconclusive: 16.4 µM [cytotoxic, single point]
COc1ccccc1NS(=O)(=O)c1ccc(NN=C2CCCC2)c([N+](=O)[O-])c1 | inactive: 8.6% | –
O=S(=O)(c1ccccc1)N(CC1CO1)c1cccc2ccccc12 (stereo unspecified) | inactive: -2.52% | –
CCN(Cc1cccs1)C(=O)CN1CCN(S(=O)(=O)c2ccc3c(c2)OCCCO3)CC1 | – | inconclusive: 29.1 µM [cytotoxic, single point]
Cc1ccc(-c2csc(N3CCC[C@@H]3C(=O)NCCn3c(-c4ccncc4)nc4ccccc43)n2)cc1 | – | inconclusive: 29.1 µM [cytotoxic, single point]
O=C(CCCC(=O)N(CC(=O)NC1CCCC1)c1cccc(F)c1)Nc1ccccn1 | – | inconclusive: 29.1 µM [rising, single point]
O=C(NCCc1c[nH]c2ccccc12)C(=O)NCC(c1ccco1)N1CCN(c2ccccc2)CC1 (stereo unspecified) | – | inconclusive: 23.1 µM [rising, single point]

Exported in markdown: 2 of the compounds above.

| Structure (SMILES) | activity change, negative = cytotoxic | Potency |
| --- | --- | --- |
| O=C(N/N=C/c1ccc(Cl)cc1Cl)c1ccc2nc[nH]c2c1 | inactive: -14.3% | – |
| OCc1ccccc1SSc1ccccc1CO | – | inconclusive: 16.4 µM [cytotoxic, single point] |
